# Primary screen of a compound library

Mtb glucose medium: 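Growth of Mycobacterium tuberculosis over 3 days (7H9 medium with glucose and tyloxapol); the read-out is not stated. Concentration: 50 µM. Higher reads as more growth inhibition (inferred: compounds with an IC50 in retests scored well above the rest). About 69,000 compounds were tested under these conditions; 1.1% (about 760) showed 50% or more at least once.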
Mtb cholesterol medium: 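Growth of Mycobacterium tuberculosis over 4 days (cholesterol / DPPC medium with tyloxapol); the read-out is not stated. Concentration: 50 µM. Higher reads as more growth inhibition (inferred: compounds with an IC50 in retests scored well above the rest). About 69,000 compounds were tested under these conditions; 0.54% (about 370) showed 50% or more at least once.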

Values are the deposited “Percent Effect”, in %. The controls that fix the scale are not given in the record; negative values are as filed. The compounds are a random part of those screened. Two or more numbers in one place are separate tests of the same structure; such repeats can differ widely.

With Cn1cc(-c2csc(N3CCN(C(=O)OC(C)(C)C)CC3)n2)cn1 the screen gave Mtb glucose medium: 6.344% and 5.919%; Mtb cholesterol medium: 14.08%. O=C(O)C(F)(F)F.[H][C@@]12CCCO[C@]1([H])[C@@H](OCC(=O)N(C)C)CN2Cc1ccccc1 read Mtb glucose medium: -6.144% and -6.39%; Mtb cholesterol medium: -31.62%. CN1CCC(N(C)CCC(=O)N2CCN(Cc3cccc(F)c3)CC2)C1 (stereo unspecified) read Mtb glucose medium: -12.45%; Mtb cholesterol medium: 5.408%. Result for COc1c(CNCCC(=O)NC2CCCC2)c(C(C)C)nn1C was Mtb glucose medium: -20.73%; Mtb cholesterol medium: -3.991%. Result for N#Cc1c(F)cccc1N1CCCC(C(=O)Nc2nccs2)C1 (stereo unspecified) was Mtb glucose medium: 20.39%; Mtb cholesterol medium: 19.77%.

With O=C(C1CCCN(Cc2cccc(F)c2)C1)N1CCc2sccc2C1 (stereo unspecified) the screen gave Mtb glucose medium: 48.93%; Mtb cholesterol medium: 45.29%. N#Cc1ccc(N2CCN(C(=O)c3cc(C4CC4)[nH]n3)CC2)c(F)c1 read Mtb glucose medium: 23.57%; Mtb cholesterol medium: -7.777%. For CC(C)Cc1nnc(NC(=O)NC(CCO)c2cccs2)s1 (stereo unspecified) the result was Mtb glucose medium: -1.345%; Mtb cholesterol medium: -2.9%. Result for Cn1cnc2c1CCN(CCS(=O)(=O)c1ccc(Cl)cc1)C2 was Mtb glucose medium: 23.25%; Mtb cholesterol medium: 11.55%. With CCn1cnnc1CCNS(=O)(=O)N1CCCC1c1ccco1 (stereo unspecified) the screen gave Mtb glucose medium: 5.114%; Mtb cholesterol medium: -2.52%.

For [H][C@@]12CN(C(=O)c3ccsc3)C[C@]1([H])C(=O)N(Cc1cccc(C)c1)C2 the result was Mtb glucose medium: -27.71%; Mtb cholesterol medium: -3.281%. O=C(NCCOCC1CC1)Nc1ccc(F)cc1 gave Mtb glucose medium: 38%; Mtb cholesterol medium: 1.516%. Cc1c(NC(C)C(C)C)cccc1C(=O)NCc1cnn(C)c1 (stereo unspecified) read Mtb glucose medium: -0.9236%; Mtb cholesterol medium: 1.442%. For O=C(CSc1ccccc1Cl)NS(=O)(=O)c1ccc2c(c1)OCCO2 the result was Mtb glucose medium: -6.59%; Mtb cholesterol medium: 0.1558%. Result for COc1ccc(C(C)NC(=O)NCCNc2ccccn2)c(OC)c1 (stereo unspecified) was Mtb glucose medium: 47.62%; Mtb cholesterol medium: 16.84%.

With Cc1ccc(-c2ncc(CN3CCN(S(N)(=O)=O)CC3)s2)o1 the screen gave Mtb glucose medium: 9.788%; Mtb cholesterol medium: 0.4579%. For COCCN(Cc1cccc(OCCO)c1)Cc1ccccc1F the result was Mtb glucose medium: 16.69%; Mtb cholesterol medium: 11.83%. Result for Cc1cc(CN(C)C(=O)Nc2cnc3c(c2)c(C)nn3C)no1 was Mtb glucose medium: -6.06%; Mtb cholesterol medium: 0.8684%. With COc1ccc(C2CNCCN2C(=O)c2nccc3ccccc23)cc1 (stereo unspecified) the screen gave Mtb glucose medium: -1.186%; Mtb cholesterol medium: -15.85%. Result for CN1CC2(CCCN(Cc3nnc(-c4ccco4)o3)CC2)OC1=O (stereo unspecified) was Mtb glucose medium: -12.1%; Mtb cholesterol medium: -8.432%.

Cc1nc(C2CN(Cc3ccc(F)cc3Br)CCO2)no1 (stereo unspecified) read Mtb glucose medium: 28.28% and 37.44%; Mtb cholesterol medium: 47.44%. For Cc1n[nH]c(C)c1CCc1n[nH]c(=O)n1Cc1cccs1 the result was Mtb glucose medium: -14.31%; Mtb cholesterol medium: -10.66%.

The last 2 entries again:

SMILES	Mtb glucose medium	Mtb cholesterol medium
Cc1nc(C2CN(Cc3ccc(F)cc3Br)CCO2)no1 (stereo unspecified)	28.28% and 37.44%	47.44%
Cc1n[nH]c(C)c1CCc1n[nH]c(=O)n1Cc1cccs1	-14.31%	-10.66%

From ChEMBL document CHEMBL3988442, “University of Dundee, Small-Polar-MMV Screening Library” (2021).